Assay results from the supplement of paper PMC9135407.
Where “and” joins values, the source holds several entries; their conditions need not be identical. Identical values can stand only once. Counter-ions that a name gives are not always drawn. ± gives the standard deviation of the averaged measurements. The list shows a part of the results. Part of the spread comes from offsets between plates or batches.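 Assay uses culture-activated primary human stellate myofibroblasts; lipid droplet recovery indicates inactivation. Measured: proportion of Hoechst-counted cells over a plate-specific Bodipy cutoff, duplicate wells, DMSO and nortriptyline as per-plate negative and positive controls. A hit scores, control-normalized, above the plate's top-tenth-percentile nortriptyline wells or ranks among its three best wells. Final well concentrations not reported.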

Test system: primary human hepatic stellate cells (donor 1)
Experiment: percent Bodipy-positive cells; higher = more lipid droplet accumulation
Details: 48 h
[1] = library stock concentration: 3.33 mM
[2] = library stock concentration: 10 mM
[3] = library stock concentration: 1 mM
[4] = library stock concentration: 10.4 mM
[5] = library stock concentration: 6.4 mM

Structure (SMILES): CC(C)NCC(O)c1ccc(NS(C)(=O)=O)cc1 (stereo not given) [Sotalol]
- percent Bodipy-positive cells [1]: 11.6 ± 9.9%
- percent Bodipy-positive cells [2]: 13.9 ± 0.89%

Structure (SMILES): CC(C)NCC(O)c1ccc(NS(C)(=O)=O)cc1 (stereo not given) [(?)-Sotalol hydrochloride] [listing 1 of 2 here]
- percent Bodipy-positive cells [2]: 12.1 ± 3.2%

Structure (SMILES): CC(C)NCC(O)c1ccc(NS(C)(=O)=O)cc1 (stereo not given) [(?)-Sotalol hydrochloride] [listing 2 of 2 here]
- percent Bodipy-positive cells [2]: 8.18 ± 0.96%

Structure (SMILES): CC(C)NCC(O)c1ccc(NS(C)(=O)=O)cc1 (stereo not given) [Sotalol HCl]
- percent Bodipy-positive cells (library stock concentration: 7.3 mM): 9.99 ± 2.6%

Structure (SMILES): CC1=C(C)C(=O)C(CCCCC#CCCCC#CCO)=C(C)C1=O
- percent Bodipy-positive cells [2]: 56.6 ± 13%
- percent Bodipy-positive cells (library stock concentration: 15.3 mM): 16.6 ± 0.68%

Structure (SMILES): CC1=C(C)C(=O)C(CCCCC#CCCCC#CCO)=C(C)C1=O [Docebenone]
- percent Bodipy-positive cells (library stock concentration: 6.1 mM): 10.4 ± 2%

Structure (SMILES): Nc1ccc(C(=O)Nc2cccc(-c3nc(N4CCOCC4)c4oc5ncccc5c4n3)c2)cn1
- percent Bodipy-positive cells [2]: 98.7 ± 1.1%

Structure (SMILES): CN(C)CCCCSC(=N)N
- percent Bodipy-positive cells [2]: 6.24 ± 4.1%

Structure (SMILES): COc1ccc2cccc(CCNC(C)=O)c2c1 [Agomelatine]
- percent Bodipy-positive cells [3]: 17.7 ± 2.3%
- percent Bodipy-positive cells [1]: 8.8 ± 0.8%
- percent Bodipy-positive cells [2]: 14.15 ± 0.11%

Structure (SMILES): CCCCCC/C=C/C=C\CCCCCCCC(=O)O [9(Z),11(E)-Conjugated Linoleic Acid]
- percent Bodipy-positive cells [3]: 11.5 ± 0.84%

Structure (SMILES): Nc1nc2c([nH]c(=O)n2[C@H]2C[C@H](O)[C@@H](CO)O2)c(=O)[nH]1 [8-hydroxy-2'-deoxy Guanosine]
- percent Bodipy-positive cells [3]: 11.4 ± 3.6%

Structure (SMILES): COc1cc(C=O)ccc1O [Vanillin]
- percent Bodipy-positive cells [1]: 6.39 ± 2.2%
- percent Bodipy-positive cells [2]: 20.3 ± 14%

Structure (SMILES): C1=N/C2=N/c3ccc(OCCN4CCCC4)c(c3)COC/C=C/COCc3cccc(c3)C(=C1)N2 [Pacritinib (SB1518)]
- percent Bodipy-positive cells [1]: 94.38 ± 0.51%
- percent Bodipy-positive cells [2]: 98.1 ± 1.9%

Structure (SMILES): C1=N/C2=N/c3ccc(OCCN4CCCC4)c(c3)COC/C=C/COCc3cccc(c3)C(=C1)N2 [Pacritinib]
- percent Bodipy-positive cells (library stock concentration: 80 uM): 26.5 ± 8.6%
- percent Bodipy-positive cells (library stock concentration: 400 uM): 58.6 ± 4.6%
- percent Bodipy-positive cells (library stock concentration: 2 mM): 56.6 ± 1.7%

Structure (SMILES): CCCCCCCCCCCCCCCC[N+](C)(C)CCN(Cc1ccc(OC)cc1)c1ncccn1 [Thonzonium bromide]
- percent Bodipy-positive cells: 57.3 ± 15%

Structure (SMILES): CC(C)(C)NS(=O)(=O)c1cncc(-c2cc(F)c3nc(N)nn3c2)c1
- percent Bodipy-positive cells [1]: 11.4 ± 4.1%
- percent Bodipy-positive cells [2]: 48.8 ± 18%

Structure (SMILES): O=C(O)P(=O)(O)O [Foscarnet Sodium]
- percent Bodipy-positive cells [1]: 7.78 ± 0.94%
- percent Bodipy-positive cells [2]: 13.2 ± 3.8%

Structure (SMILES): O=C(O)P(=O)(O)O [Foscarnet sodium]
- percent Bodipy-positive cells [2]: 21.65 ± 0.21%
- percent Bodipy-positive cells [4]: 25.1 ± 8.3%

Structure (SMILES): Cc1cc2c(cc1Cl)N(C(=O)Nc1ccnc3ccccc13)CC2
- percent Bodipy-positive cells [2]: 93.02 ± 0.17%

Structure (SMILES): CCN(CC)CCCC(C)Nc1c2ccc(Cl)cc2nc2ccc(OC)cc12 (stereo not given) [Quinacrine hydrochloride]
- percent Bodipy-positive cells [2]: 100%

Structure (SMILES): CCN(CC)CCCC(C)Nc1c2ccc(Cl)cc2nc2ccc(OC)cc12 (stereo not given) [Quinacrine dihydrochloride]
- percent Bodipy-positive cells [2]: 100%

Structure (SMILES): CCN(CC)CCCC(C)Nc1c2ccc(Cl)cc2nc2ccc(OC)cc12 (stereo not given) [Quinacrine dihydrochloride dihydrate]
- percent Bodipy-positive cells: 98.8 ± 1.6%

Structure (SMILES): CCN(CC)CCCC(C)Nc1c2ccc(Cl)cc2nc2ccc(OC)cc12 (stereo not given) [Quinacrine 2HCl]
- percent Bodipy-positive cells [1]: 92.7 ± 10%
- percent Bodipy-positive cells [2]: 100%

Structure (SMILES): Cc1nc(C)c(Cl)c(O)c1Cl [Clopidol]
- percent Bodipy-positive cells [2]: 49.6 ± 24%
- percent Bodipy-positive cells [4]: 9.72% and 13.4%

Structure (SMILES): CCCCC[C@H](O)/C=C/[C@@H]1[C@@H](C/C=C\CCCCO)[C@@H](O)C[C@H]1O [Prostaglandin F2.alpha. Alcohol]
- percent Bodipy-positive cells [3]: 14.6 ± 0.29%

Structure (SMILES): COC(=O)[C@H]1[C@H]2C[C@@H]3c4[nH]c5cc(OC)ccc5c4CCN3C[C@H]2C[C@@H](OC(=O)c2cc(OC)c(OC)c(OC)c2)[C@@H]1OC [Reserpine]
- percent Bodipy-positive cells: 17.6 ± 5.7%

Structure (SMILES): COc1cc2c(cc1OC)-c1cc3ccc(OC)c(OC)c3c[n+]1CC2 [Palmatine chloride]
- percent Bodipy-positive cells: 29.7 ± 1.8%
- percent Bodipy-positive cells [1]: 11.1 ± 2.9%
- percent Bodipy-positive cells [2]: 36.6% and 18.7%

Structure (SMILES): CC(C)C[C@H](NC(=O)[C@@H](O)[C@H](N)Cc1ccccc1)C(=O)O [Bestatin (hydrochloride)]
- percent Bodipy-positive cells [3]: 6.986 ± 0.059%

Structure (SMILES): CC(C)C[C@H](NC(=O)[C@@H](O)[C@H](N)Cc1ccccc1)C(=O)O [Bestatin]
- percent Bodipy-positive cells [2]: 7.84 ± 1.4%
- percent Bodipy-positive cells (library stock concentration: 16.2 mM): 22.5 ± 4.5%

Structure (SMILES): CC(C)C[C@H](NC(=O)[C@@H](O)[C@H](N)Cc1ccccc1)C(=O)O
- percent Bodipy-positive cells [2]: 10.5 ± 0.99%

Structure (SMILES): CC(C)C[C@H](NC(=O)[C@@H](O)[C@H](N)Cc1ccccc1)C(=O)O [Bestatin hydrochloride]
- percent Bodipy-positive cells [2]: 55.4 ± 1.6%

Structure (SMILES): O=C(O)CN(CCOCCOCCN(CC(=O)O)CC(=O)O)CC(=O)O
- percent Bodipy-positive cells [2]: 46 ± 5.3%

Structure (SMILES): C=CCc1ccc(O)c(-c2ccc(O)c(CC=C)c2)c1 [Honokiol]
- percent Bodipy-positive cells [1]: 7.43 ± 0.41%
- percent Bodipy-positive cells [2]: 35.9 ± 1.5%

Structure (SMILES): CNC(=C[N+](=O)[O-])NCCSCc1ccc(CN(C)C)o1 [Ranitidine hydrochloride]
- percent Bodipy-positive cells: 28.1 ± 2.1%
- percent Bodipy-positive cells [2]: 14.3% and 6.37%

Structure (SMILES): CNC(=C[N+](=O)[O-])NCCSCc1ccc(CN(C)C)o1 [Ranitidine]
- percent Bodipy-positive cells [1]: 7.3 ± 0.4%
- percent Bodipy-positive cells [5]: 20.6 ± 1.3%
- percent Bodipy-positive cells [2]: 44.3% and 32%

Structure (SMILES): CNC(=C[N+](=O)[O-])NCCSCc1ccc(CN(C)C)o1 [Ranitidine HCl]
- percent Bodipy-positive cells [5]: 7.61 ± 0.26%

Structure (SMILES): CN(C)CCCSc1ccccc1NC(=O)/C=C/c1ccccc1 [Cinanserin hydrochloride]
- percent Bodipy-positive cells [2]: 40.7 ± 1.1%

Structure (SMILES): CN(C)CCCSc1ccccc1NC(=O)/C=C/c1ccccc1 [Cinanserin]
- percent Bodipy-positive cells (library stock concentration: 5.9 mM): 31.5 ± 2.5%
- percent Bodipy-positive cells [2]: 30.8 ± 8.7%

Structure (SMILES): CC(C)(C)c1ccc(S(=O)(=O)Nc2ccc(-n3ccnc3)cc2)cc1 [Stem-Cell Factor/c-Kit Inhibitor, ISCK03]
- percent Bodipy-positive cells [1]: 9.97 ± 1.2%
